Measurements published in patent publication US11564911B2, “Small molecule dual-inhibitors of TRPV4 and TRPA1 for sanitizing and anesthetizing” (Duke University, priority 2016, dated 2023).
Some results were stated once for a whole list of compounds, not compound by compound.

By UniProt entry, the sequences of proteins in these tests, tags left out.
UniProt O75762, whole entry: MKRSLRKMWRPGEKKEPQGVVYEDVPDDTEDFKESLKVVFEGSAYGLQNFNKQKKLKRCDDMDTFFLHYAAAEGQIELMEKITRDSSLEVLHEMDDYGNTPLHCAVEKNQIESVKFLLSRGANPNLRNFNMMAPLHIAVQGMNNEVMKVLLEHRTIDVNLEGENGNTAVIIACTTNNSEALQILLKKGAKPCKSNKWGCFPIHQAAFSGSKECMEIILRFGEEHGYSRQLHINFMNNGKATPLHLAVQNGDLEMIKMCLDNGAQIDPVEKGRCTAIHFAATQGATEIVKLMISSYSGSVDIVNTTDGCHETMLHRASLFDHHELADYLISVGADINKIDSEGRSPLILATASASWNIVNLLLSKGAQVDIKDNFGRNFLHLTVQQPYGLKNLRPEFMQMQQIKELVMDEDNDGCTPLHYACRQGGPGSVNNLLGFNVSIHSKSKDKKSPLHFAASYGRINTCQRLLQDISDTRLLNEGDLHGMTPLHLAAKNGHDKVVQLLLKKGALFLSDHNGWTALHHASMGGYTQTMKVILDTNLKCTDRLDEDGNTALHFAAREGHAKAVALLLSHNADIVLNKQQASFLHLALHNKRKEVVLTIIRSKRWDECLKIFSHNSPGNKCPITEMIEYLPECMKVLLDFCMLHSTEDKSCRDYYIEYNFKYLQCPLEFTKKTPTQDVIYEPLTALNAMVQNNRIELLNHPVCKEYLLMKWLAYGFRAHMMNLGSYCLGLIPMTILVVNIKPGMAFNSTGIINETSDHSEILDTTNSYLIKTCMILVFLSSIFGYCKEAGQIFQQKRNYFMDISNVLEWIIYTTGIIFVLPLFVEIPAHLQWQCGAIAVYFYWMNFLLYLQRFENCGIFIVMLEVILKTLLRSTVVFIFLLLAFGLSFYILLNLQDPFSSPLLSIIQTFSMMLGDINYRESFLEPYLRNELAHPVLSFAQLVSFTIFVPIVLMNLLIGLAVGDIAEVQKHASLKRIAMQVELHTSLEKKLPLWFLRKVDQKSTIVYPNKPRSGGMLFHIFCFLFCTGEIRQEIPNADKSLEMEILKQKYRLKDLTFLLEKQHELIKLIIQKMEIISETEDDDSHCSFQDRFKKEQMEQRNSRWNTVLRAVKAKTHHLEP

Molecular target: T1, human TRPA1 (Homo sapiens, UniProt O75762)
T1 construct: expressed in transfected cells; host or cells: N2a cells, co-transfected with eGFP plasmid
Test: Ca2+ transient in N2a cells transfected with human TRPA1, AITC activation
Type: cell-based
Details: compound 5 μM, pre-exposed 10 min
Description: Compounds were tested for their effect on TRPA1. N2a permanent cells were transfected with human TRPA1 cDNA, using a pcDNA3.1 expression plasmid. They were co-transfected with eGFP-expressing plasmid, or, for control, with eGFP plasmid only.
Cells were then pre-exposed to 5 μM of compounds 16-8 and 16-19 for 10 min.

Structure (SMILES) | reduction of Ca2+ transient evoked by 60 μM AITC
CCN(CCc1ccc(Nc2nc(-c3ccccc3)cs2)cc1)Cc1ccccc1 [Compound 16-19] | > 80%
CN(CCc1ccc(Nc2nc(-c3ccccc3)cs2)cc1)Cc1ccccc1 [Compound 16-8] | > 80%
